The other results are listed elsewhere or left out.

The chains behind the UniProt entries cited, without tags or fusion partners. Where a name states a change or a piece, a line headed by the entry shows the natural chain unless it says otherwise.
UniProt O75569: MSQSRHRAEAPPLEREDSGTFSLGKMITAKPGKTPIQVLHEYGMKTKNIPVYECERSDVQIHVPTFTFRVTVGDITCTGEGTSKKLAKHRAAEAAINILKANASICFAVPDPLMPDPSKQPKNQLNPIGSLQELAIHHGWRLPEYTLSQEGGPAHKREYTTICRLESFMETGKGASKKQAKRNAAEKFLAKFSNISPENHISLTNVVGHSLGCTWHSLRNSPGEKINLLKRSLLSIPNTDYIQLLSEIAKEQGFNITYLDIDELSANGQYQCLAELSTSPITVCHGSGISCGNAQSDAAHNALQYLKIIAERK
UniProt Q9ULJ8: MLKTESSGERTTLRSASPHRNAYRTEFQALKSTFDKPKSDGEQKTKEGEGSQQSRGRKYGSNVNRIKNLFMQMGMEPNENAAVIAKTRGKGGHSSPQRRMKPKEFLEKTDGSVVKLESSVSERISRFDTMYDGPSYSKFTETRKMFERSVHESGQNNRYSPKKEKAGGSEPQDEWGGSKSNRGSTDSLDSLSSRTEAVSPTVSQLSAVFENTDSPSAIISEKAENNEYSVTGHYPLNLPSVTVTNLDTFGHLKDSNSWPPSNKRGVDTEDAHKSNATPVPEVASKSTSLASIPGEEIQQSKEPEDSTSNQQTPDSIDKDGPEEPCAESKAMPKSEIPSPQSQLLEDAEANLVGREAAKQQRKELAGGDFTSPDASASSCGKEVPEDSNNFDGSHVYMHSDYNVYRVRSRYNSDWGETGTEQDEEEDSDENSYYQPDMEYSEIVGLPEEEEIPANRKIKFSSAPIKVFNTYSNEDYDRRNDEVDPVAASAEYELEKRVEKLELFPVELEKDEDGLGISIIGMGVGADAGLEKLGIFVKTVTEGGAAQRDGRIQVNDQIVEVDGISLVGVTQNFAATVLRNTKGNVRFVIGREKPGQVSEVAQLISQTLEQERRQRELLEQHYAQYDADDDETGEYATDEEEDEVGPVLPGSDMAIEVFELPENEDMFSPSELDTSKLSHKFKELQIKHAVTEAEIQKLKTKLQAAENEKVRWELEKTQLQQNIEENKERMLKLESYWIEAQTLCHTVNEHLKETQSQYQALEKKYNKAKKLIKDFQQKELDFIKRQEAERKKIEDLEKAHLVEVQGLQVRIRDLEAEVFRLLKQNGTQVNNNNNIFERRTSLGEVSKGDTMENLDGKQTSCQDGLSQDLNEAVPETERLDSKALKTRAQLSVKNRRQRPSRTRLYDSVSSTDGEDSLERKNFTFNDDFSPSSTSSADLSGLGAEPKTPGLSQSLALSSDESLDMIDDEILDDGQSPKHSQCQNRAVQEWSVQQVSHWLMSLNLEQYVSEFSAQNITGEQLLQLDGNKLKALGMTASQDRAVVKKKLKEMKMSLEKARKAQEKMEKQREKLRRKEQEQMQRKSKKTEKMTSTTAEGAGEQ
UniProt Q16378: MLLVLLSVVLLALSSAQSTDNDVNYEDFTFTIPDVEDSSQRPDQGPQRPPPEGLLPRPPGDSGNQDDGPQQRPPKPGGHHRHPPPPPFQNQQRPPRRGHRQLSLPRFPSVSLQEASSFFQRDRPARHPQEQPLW
UniProt O95685: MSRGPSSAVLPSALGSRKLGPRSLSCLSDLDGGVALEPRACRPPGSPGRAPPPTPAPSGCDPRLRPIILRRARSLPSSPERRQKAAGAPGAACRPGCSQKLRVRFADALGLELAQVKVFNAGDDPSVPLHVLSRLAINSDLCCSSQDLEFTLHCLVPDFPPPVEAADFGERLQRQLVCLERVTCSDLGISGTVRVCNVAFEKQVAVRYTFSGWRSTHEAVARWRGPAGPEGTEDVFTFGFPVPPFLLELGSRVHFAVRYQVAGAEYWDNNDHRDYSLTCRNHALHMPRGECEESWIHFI
UniProt Q2NL68: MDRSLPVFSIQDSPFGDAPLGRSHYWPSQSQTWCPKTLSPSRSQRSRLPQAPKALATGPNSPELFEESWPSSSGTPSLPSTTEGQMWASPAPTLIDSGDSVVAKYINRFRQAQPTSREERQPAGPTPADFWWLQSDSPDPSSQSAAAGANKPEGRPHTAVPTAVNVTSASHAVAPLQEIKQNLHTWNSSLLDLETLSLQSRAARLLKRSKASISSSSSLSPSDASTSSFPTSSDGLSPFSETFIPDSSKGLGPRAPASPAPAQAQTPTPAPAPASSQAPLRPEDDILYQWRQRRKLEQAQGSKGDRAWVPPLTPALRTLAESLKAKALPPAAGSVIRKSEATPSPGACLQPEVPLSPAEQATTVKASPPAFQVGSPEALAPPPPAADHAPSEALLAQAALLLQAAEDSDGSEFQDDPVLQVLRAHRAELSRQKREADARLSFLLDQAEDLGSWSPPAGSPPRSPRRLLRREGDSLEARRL
UniProt P02810: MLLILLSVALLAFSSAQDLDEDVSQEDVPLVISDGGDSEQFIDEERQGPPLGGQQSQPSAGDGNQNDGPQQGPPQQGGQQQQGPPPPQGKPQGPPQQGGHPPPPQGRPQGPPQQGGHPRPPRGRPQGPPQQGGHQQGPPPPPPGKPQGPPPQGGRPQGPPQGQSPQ
UniProt P79522: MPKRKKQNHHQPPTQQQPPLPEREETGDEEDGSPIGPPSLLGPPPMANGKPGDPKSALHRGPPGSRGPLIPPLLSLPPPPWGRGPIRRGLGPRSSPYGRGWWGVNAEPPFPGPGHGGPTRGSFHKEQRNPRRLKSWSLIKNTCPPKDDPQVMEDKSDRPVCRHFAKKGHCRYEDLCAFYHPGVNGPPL
UniProt Q96LW4: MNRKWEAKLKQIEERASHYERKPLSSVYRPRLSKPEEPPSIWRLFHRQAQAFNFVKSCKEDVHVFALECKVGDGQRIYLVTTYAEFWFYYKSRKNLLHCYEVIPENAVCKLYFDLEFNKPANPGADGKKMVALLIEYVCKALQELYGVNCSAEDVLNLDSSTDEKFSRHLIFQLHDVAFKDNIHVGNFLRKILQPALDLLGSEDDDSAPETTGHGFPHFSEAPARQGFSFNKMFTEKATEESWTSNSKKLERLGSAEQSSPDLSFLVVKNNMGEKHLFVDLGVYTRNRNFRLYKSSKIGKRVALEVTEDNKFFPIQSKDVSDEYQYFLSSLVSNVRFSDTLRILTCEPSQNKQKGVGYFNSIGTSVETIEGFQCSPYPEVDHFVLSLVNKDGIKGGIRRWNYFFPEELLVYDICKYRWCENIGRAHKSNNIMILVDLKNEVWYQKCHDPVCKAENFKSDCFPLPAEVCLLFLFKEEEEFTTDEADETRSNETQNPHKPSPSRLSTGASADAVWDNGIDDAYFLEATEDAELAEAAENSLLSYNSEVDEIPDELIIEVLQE
UniProt Q86XN7: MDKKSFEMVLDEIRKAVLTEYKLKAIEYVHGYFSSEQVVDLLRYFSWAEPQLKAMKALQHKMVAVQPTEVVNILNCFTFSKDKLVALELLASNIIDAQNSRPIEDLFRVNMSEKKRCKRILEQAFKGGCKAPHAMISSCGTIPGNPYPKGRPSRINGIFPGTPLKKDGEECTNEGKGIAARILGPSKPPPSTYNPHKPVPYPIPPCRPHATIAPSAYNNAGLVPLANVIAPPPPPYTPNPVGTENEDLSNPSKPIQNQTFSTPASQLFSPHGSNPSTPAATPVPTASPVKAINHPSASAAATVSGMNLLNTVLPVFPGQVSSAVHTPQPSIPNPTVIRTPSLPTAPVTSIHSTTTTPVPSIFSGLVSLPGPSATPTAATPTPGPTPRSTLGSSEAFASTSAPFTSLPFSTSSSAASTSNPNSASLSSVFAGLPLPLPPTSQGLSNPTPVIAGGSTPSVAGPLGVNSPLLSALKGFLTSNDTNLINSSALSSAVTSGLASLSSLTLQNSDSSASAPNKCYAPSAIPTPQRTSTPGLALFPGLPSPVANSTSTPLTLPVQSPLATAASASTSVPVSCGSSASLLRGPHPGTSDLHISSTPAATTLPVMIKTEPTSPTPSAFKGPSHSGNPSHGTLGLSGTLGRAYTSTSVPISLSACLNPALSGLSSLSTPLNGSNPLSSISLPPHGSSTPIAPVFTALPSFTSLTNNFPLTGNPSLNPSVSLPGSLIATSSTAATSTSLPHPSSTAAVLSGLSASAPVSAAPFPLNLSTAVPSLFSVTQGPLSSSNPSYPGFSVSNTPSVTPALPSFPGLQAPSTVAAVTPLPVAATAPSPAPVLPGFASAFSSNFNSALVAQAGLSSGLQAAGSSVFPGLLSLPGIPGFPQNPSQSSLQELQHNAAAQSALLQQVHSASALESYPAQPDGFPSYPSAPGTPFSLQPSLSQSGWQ
UniProt Q5THK1: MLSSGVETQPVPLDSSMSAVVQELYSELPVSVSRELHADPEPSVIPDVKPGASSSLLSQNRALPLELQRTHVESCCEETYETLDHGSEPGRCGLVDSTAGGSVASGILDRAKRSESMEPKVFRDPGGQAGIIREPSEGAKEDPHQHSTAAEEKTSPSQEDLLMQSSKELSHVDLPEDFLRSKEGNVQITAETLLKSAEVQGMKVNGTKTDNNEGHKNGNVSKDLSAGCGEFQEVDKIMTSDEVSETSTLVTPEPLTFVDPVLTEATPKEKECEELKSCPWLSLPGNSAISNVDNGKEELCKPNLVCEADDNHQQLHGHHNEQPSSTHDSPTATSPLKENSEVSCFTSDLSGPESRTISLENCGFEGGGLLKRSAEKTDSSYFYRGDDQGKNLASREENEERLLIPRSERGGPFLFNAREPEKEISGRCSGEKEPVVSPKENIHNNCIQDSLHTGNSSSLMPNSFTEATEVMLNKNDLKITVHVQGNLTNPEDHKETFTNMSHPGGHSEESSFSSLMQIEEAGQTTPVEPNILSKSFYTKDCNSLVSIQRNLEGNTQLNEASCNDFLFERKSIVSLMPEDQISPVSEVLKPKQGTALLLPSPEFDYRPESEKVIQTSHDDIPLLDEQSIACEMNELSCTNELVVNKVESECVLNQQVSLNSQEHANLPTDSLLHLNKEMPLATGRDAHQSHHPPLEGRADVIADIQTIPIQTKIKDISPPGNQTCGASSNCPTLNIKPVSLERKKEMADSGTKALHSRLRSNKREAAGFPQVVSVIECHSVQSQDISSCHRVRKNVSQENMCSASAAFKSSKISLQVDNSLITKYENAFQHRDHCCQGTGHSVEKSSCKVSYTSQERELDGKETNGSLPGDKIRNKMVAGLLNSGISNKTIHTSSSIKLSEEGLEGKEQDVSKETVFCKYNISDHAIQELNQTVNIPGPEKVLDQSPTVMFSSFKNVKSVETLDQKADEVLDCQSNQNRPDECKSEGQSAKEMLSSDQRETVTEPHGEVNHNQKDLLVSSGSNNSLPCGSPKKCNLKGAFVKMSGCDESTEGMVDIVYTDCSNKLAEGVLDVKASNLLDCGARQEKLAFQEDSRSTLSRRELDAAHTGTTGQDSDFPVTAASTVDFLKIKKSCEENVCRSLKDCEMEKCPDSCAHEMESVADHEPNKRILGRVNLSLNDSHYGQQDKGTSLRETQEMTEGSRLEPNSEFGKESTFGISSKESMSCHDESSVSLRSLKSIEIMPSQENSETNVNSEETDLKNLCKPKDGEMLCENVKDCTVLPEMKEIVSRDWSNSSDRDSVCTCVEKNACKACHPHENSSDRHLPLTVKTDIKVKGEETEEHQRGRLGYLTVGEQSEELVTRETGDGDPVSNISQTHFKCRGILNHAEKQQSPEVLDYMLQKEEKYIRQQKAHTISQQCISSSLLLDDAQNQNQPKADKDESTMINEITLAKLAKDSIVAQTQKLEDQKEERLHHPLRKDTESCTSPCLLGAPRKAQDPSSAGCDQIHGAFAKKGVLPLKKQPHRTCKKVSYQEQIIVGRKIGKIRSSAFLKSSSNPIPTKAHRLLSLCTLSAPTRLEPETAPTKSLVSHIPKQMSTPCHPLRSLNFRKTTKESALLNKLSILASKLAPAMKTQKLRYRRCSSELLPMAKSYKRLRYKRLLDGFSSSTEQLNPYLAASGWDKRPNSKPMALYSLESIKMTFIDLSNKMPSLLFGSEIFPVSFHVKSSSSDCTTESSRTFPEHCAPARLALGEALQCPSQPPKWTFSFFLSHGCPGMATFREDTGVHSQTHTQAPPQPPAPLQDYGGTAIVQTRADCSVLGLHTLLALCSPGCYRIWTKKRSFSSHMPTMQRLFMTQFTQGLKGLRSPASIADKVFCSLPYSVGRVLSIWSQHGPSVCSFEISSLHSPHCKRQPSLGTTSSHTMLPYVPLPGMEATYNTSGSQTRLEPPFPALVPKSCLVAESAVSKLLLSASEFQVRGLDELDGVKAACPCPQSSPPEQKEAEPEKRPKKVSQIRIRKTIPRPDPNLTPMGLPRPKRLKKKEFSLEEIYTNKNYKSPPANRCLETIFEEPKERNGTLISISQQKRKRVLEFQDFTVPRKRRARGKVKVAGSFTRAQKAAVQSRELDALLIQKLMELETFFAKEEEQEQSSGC
UniProt Q9BSG0: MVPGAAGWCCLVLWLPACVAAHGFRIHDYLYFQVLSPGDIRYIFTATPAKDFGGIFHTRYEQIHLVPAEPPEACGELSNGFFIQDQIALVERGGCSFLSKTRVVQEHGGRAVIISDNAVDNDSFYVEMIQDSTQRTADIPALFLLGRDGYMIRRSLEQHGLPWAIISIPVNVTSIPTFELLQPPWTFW

Compound in the first experiment: CC1=C(C(CC(=O)N1)C2=CC=C(C=C2)C(F)(F)F)C(=O)NC3=C(C=C4C(=C3)C=NN4)F
As to the kind of experiment: log2 fold change, soluble protein after heating vs DMSO (PISA); higher = thermal stabilisation; K562 cells, 10 uM, 30 min; active = over 0.2 and 3.5 SD of the protein, either way, in both replicates (recomputed). The method, boiled down: (§1)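 Aliquots of K562 cells (2×10^6 cells/mL) treated with 10 μM compound for 30 min were heated for 3 min over 48°C-58°C. After pooling and extraction in PBS with 0.5% NP-40 at 4°C, soluble protein from a 21,000xg, 90 min spin was quantified by TMTpro 16plex LC-MS/MS with channel sums equalised. Thermal stability is expressed against control samples, from duplicates, as a log2 fold change.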
Regarding PRKRA (UniProt O75569), the log2 fold change was inactive: 0.051. Still for that read-out and setting: with PPP1R9A isoform 3 (UniProt Q9ULJ8) the figure was inactive: -0.002; with PRR4 (UniProt Q16378), inactive: -0.118. As for PPP2R1B (UniProt H0YDG7), the log2 fold change was inactive: 0.046. On the same count and under the same terms, with PRDM2 (UniProt Q13029) the figure was inactive: -0.158; with PPP1R3D (UniProt O95685), inactive: -0.163.

As for PPP1R12B isoform 6 (UniProt O60237), the log2 fold change was active: -0.346. On the same count and under the same terms, with PPP1R13L (UniProt Q8WUF5) the figure was inactive: 0.021; with PROSER3 (UniProt Q2NL68), inactive: -0.038; with PPP2R3B (UniProt Q9Y5P8), inactive: 0.076. Same read-out and setting: with PRH1 (UniProt P02810) the figure was inactive: -0.062.

Compound in the next experiment: CC1=C(C2=C(C=C1)C(=O)C3=CC=CC=C3N2CCCN)C
The description is as above. The procedure, abridged:
as §1
Regarding PRKRA (UniProt O75569), the log2 fold change was inactive: -0.399. In the case of PRPF39 (UniProt Q86UA1), the log2 fold change was inactive: -0.258. Same read-out and setting: with PPP2R1B (UniProt H0YDG7) the figure was inactive: 0.027; with PPP2R3C (UniProt Q969Q6), inactive: 0.064; with PRDM2 (UniProt Q13029), inactive: -0.177.

With PRR3 (UniProt P79522), the log2 fold change was inactive: -0.192. On to PPP1R3D (UniProt O95685), for which the log2 fold change was inactive: -0.204. For PRC1 (UniProt O43663), the log2 fold change is inactive: -0.109.

PRIMPOL (UniProt Q96LW4): the log2 fold change is inactive: -0.119.

Regarding PROSER1 (UniProt Q86XN7), the log2 fold change was inactive: 0.088.

On to PROSER3, A0A2R8Y8D9, for which the log2 fold change was inactive: -0.026. PPP1R13L (UniProt Q8WUF5): the log2 fold change is inactive: -0.063. Same read-out and setting: with PROSER3 (UniProt Q2NL68) the figure was inactive: -0.013; with PPP2R3B (UniProt Q9Y5P8), inactive: 0.067. Turning to PRR14L (UniProt Q5THK1), the log2 fold change was inactive: 0.008. PRADC1 (UniProt Q9BSG0): the log2 fold change was inactive: 0.167.

The values above are taken from the supplement of paper PMC10849652.
